Source: publication PMC10321483 (Chemical Science, 2023)
The source holds more than one record for some entries. They are shown here; other results are not. There may be further records. The values listed for one entry differ, and nothing given here explains why; some may be repeats, others may stem from another dose, organism or construct than stated.

Experiment: Intrinsic thiol reactivity (kchem), competition with probe 2 for L-glutathione
Conditions: Table S10 known cyanating compounds; unit printed in b38 only

Compound: N#Cn1ccnc1 [Compound 41, reference compound]
- kchem (apparent intrinsic thiol reactivity): 3.69 ± 0.11 M^−1 s^−1 and 0.90 M^−1 s^−1
